Measured values as given in publication PMC11092868.
These are yes or no findings as the source states them, for the method shown. In cells and extracts the contact can be indirect. Here binding means that the protein was enriched with, or labelled near, the bait; the list need not be complete.

Amino acid sequences for entries named in this document (tags omitted). Residues count along the entry.
UniProt Q16595, residues 42-210: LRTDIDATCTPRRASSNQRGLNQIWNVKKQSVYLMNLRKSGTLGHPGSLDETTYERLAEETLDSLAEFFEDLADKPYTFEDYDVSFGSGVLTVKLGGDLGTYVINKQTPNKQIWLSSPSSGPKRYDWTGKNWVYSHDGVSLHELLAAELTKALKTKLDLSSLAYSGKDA

Molecular target: frataxin FXN^42-210, endogenous in human lymphoblasts (human (endogenous in lymphoblasts)) (UniProt Q16595)
Test: affinity purification with mass spectrometry; rabbit anti-FXN antibody on Protein A magnetic beads; pooled high molecular weight Superdex 75 fractions of human lymphoblast lysates; bound fraction analysed by LC-MS/MS

B1: Peroxiredoxin 3, endogenous human (protein, UniProt P30048 62-256)
chain: APAVTQHAPYFKGTAVVNGEFKDLSLDDFKGKYLVLFFYPLDFTFVCPTEIVAFSDKANEFHDVNCEVVAVSVDSHFSHLAWINTPRKNGGLGHMNIALLSDLTKQISRDYGVLLEGSGLALRGLFIIDPNGVIKHLSVNDLPVGRSVEETLRLVKAFQYVETHGEVCPANWTPDSPTIKPSPAASKEYFQKVNQ
- binding: binds
